# Results are given in words; binding and its absence hold for the method and conditions named. Binding seen in cells or lysates may run through a third protein. A result given as binding can be weak or reduced; the word gives no strength.
# Chains of the proteins cited; added tags and fusions are not shown. Residues count along the entry.
# UniProt Q96J02, 569-903: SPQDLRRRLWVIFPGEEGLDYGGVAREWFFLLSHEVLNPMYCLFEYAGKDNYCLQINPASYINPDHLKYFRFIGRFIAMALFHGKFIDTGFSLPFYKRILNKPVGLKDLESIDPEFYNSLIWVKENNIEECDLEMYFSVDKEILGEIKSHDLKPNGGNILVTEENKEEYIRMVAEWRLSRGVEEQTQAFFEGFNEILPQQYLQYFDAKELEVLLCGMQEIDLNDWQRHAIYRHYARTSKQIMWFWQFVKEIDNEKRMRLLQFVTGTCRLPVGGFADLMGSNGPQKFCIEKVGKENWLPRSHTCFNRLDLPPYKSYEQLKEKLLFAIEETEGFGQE
# Target: HECT domain of ITCH (UniProt Q96J02)
# Assay: pull-down
substance,measurement,value
HA-tagged N-terminal domain (C2+PRR+WW1/2) of ITCH (from UniProt Q96J02) (domain or fragment),binding,binds

# Reference: publication doi:10.64898/2025.12.18.695023
